In this assay the target is T1, RAD21 (RAD21 cohesin complex component) (human (endogenous in the human SSC line)) (UniProt O60216).
T1 sequence: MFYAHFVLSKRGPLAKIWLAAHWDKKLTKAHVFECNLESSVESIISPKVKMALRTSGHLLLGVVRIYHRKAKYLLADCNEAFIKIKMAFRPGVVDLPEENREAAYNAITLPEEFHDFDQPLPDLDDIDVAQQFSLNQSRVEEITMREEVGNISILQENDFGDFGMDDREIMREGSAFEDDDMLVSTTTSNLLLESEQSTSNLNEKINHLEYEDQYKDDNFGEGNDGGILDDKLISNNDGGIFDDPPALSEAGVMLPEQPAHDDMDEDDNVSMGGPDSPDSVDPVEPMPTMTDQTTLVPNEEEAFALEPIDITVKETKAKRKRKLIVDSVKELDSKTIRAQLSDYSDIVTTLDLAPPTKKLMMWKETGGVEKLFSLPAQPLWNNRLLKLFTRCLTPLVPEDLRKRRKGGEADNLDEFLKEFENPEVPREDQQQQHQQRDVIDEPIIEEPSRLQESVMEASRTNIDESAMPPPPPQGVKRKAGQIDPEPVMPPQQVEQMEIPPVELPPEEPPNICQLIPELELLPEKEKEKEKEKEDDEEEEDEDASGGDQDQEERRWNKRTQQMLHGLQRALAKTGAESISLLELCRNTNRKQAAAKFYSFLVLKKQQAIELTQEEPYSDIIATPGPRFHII
The assay can be described thus: co-IP; endogenous proteins; human SSC line lysed in the binding/washing buffer of the Pierce IP/Co-IP kit; 10 ug anti-YAP1 or anti-RAD21 antibody overnight at 4 °C, protein A/G magnetic beads 2 h at room temperature; Western blot. For orientation: In western blotting, separated proteins are transferred to a membrane and probed.

These are yes or no findings as the source states them, for the method shown. In cells and extracts the contact can be indirect. Some results given as binding are weak or reduced against the parent protein; the word gives no strength.

Consider “Yes1-associated transcriptional regulator (YAP1) (from UniProt P46937-9 1-508)”, for which the binding entry is given as “binds”.

For the origin of these results see paper PMC11628678.
